Test results reported in publication PMC10724275.
These are yes or no findings as the source states them, for the method shown. In cells and extracts the contact can be indirect. Some entries that bind do so weakly or less than the wild type.

By UniProt entry, the sequences of proteins in these tests, tags left out.
UniProt Q13309: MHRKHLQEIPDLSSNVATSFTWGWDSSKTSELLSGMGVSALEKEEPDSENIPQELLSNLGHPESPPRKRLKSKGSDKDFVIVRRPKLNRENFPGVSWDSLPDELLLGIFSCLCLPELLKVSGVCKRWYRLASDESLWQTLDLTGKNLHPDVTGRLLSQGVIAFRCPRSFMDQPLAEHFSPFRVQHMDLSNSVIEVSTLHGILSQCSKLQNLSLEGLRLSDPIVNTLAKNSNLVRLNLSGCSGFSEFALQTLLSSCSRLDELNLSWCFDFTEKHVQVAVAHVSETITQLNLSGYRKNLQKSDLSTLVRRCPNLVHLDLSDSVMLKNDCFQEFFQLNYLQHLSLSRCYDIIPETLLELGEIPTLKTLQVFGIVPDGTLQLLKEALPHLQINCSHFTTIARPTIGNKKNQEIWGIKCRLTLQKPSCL

What was measured:
[1] = molecular target: S-phase kinase-associated protein-2 (SKP2) (human (endogenous in RD and JR1)) (UniProt Q13309); test: proximity ligation; DuoLink PLA in situ on RD and JR1 cells with antibodies against SKP2 and the partner; single antibodies alone as negative controls; confocal microscopy
[2] = molecular target: S-phase kinase-associated protein-2 (SKP2) (human (endogenous in RD and JR1)) (UniProt Q13309); test: co-IP; endogenous SKP2 precipitated with anti-SKP2 mouse antibody from 1.5 mg whole-cell extract of RD and JR1 cells; Triton buffer (50 mM Tris-HCl pH 7.5, 250 mM NaCl, 50 mM NaF, 1 mM EDTA, 0.1% Triton), 4 °C overnight, Dynabeads protein A or G; western blot

binding [1]: binds | binding [2]: binds
B1: p57^Kip2 (protein, UniProt P49918 1-316)
chain: MSDASLRSTSTMERLVARGTFPVLVRTSACRSLFGPVDHEELSRELQARLAELNAEDQNRWDYDFQQDMPLRGPGRLQWTEVDSDSVPAFYRETVQVGRCRLLLAPRPVAVAVAVSPPLEPAAESLDGLEEAPEQLPSVPVPAPASTPPPVPVLAPAPAPAPAPVAAPVAAPVAVAVLAPAPAPAPAPAPAPAPVAAPAPAPAPAPAPAPAPAPAPDAAPQESAEQGANQGQRGQEPLADQLHSGISGRPAAGTAAASANGAAIKKLSGPLISDFFAKRKRSAPEKSSGDVPAPCPSPSAAPGVGSVEQTPRKRLR
